The list shows a part of the results. These are further read-outs of the screen, such as a control signal, another cell line or another target. No call is given for them. Compounds called inactive in the main read-out are mostly missing here. Potencies come from curve fits of mixed quality, noted in brackets.
Assay: qHTS Assay to Find Inhibitors of Chronic Active B-Cell Receptor Signaling
Conditions: ABC-DLBCL IkBa-CBG/CBR reporter, luminescence ratio (green luciferase fused to IkBa over red control in TMD8 lymphoma cells), 4 h
Summary of the method: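 Compounds up to 46 uM were incubated four hours with TMD8 cells whose green CBG68 luciferase is fused to IkappaBalpha; red CBR luminescence normalised the signal, and concentration-effect curves were fitted to fusion, red and ratio data.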

[1] = measured here: CBR red luminescence, cell number

Structure (SMILES): CCc1cc(=O)oc2c(C)c(OCC(=O)NCCN3CCOCC3)ccc12
- AC50 [1]: 20 µM [rising, single point]

Structure (SMILES): COc1ccc(C(=O)N2CCCC(c3ccccc3)=N2)cc1
- AC50 [1]: 4.47 µM [falling, partial curve, poor fit]

Structure (SMILES): COc1cc(C=C2C(=O)OC(C)(C)OC2=O)ccc1OCC(=O)Nc1ccccc1
- AC50 [1]: 12.6 µM [falling, partial curve, poor fit]

Structure (SMILES): COc1ccc(C(=O)NCc2nnc(SCC(=O)NO)n2Cc2ccccc2)cc1
- AC50 [1]: 22.4 µM [falling, partial curve, poor fit]

Structure (SMILES): COc1cc2c(cc1OC)C(c1cccc([N+](=O)[O-])c1)NC(=O)C2 (configuration not stated)
- AC50 [1]: 5.62 µM [rising, partial curve]

Structure (SMILES): COc1ccc(/C=N/NC(=O)c2cccc(NC(=O)c3ccccc3Cl)c2)cc1OC
- AC50 [1]: 3.16 µM [falling, full curve]

Structure (SMILES): COc1ccc2oc(C(=O)OCC(=O)NC(=O)NC(C)C)c(C)c2c1
- AC50 [1]: 29.1 µM [falling, single point]

Structure (SMILES): C#CCOCCOCCOCCNc1nc(N2CCN(C(=O)CCCCCCCCCCNC(=O)[C@H](CO)n3cc(CCCCCN)nn3)CC2)nc(N2CCN(C(=O)CCCCCCCCCCNC(=O)[C@H](CCCN=C(N)N)n3cc(C[C@@H](C)CC)nn3)CC2)n1
- AC50 [1]: 29.1 µM [rising, single point]

Structure (SMILES): COc1ccccc1OCCNCC(O)COc1cccc2[nH]c3ccccc3c12 (configuration not stated)
- AC50 (measured here: IkBa-CBG green luminescence): 35.5 µM [rising, partial curve, poor fit]

Structure (SMILES): COc1cc(/C=N/n2cnnc2)ccc1OCc1ccc(C)cc1
- AC50 [1]: 0.651 µM [rising, full curve, poor fit]

Structure (SMILES): COc1ccccc1-n1ccnc(SCC(=O)NC2CCCCC2)c1=O
- AC50 [1]: 4.61 µM [falling, partial curve, poor fit]

Structure (SMILES): CCCc1cc(=O)oc2cc(C)c3c(C)coc3c12
- AC50 [1]: 10 µM [rising, partial curve]

Structure (SMILES): COC(=O)c1ccc(COC(=O)c2ccc(C)c(S(=O)(=O)N3CCCCC3)c2)cc1
- AC50 [1]: 16.4 µM [falling, single point]

Structure (SMILES): CC1(C)CC(CC(=O)Nc2nccs2)(c2ccccc2)CCO1 (configuration not stated)
- AC50 [1]: 35.5 µM [falling, single point]

Structure (SMILES): C=CCSc1nnc(-c2cc3c(-c4ccccc4)nn(C)c3s2)n1C
- AC50 [1]: 15.8 µM [falling, partial curve]

Structure (SMILES): C=CCn1c(SCc2cc(=O)n3ccsc3n2)nc2cc(Cl)ccc2c1=O
- AC50 [1]: 0.355 µM [rising, partial curve, poor fit]

Structure (SMILES): Cc1ccc(-c2csc(NC(=O)CSc3nc4ccccc4o3)n2)cc1
- AC50 [1]: 6.51 µM [rising, single point]

Reference: PubChem BioAssay AID493014 (National Center for Advancing Translational Sciences (NCATS), 2011)
